Reference: paper PMC2010749, “Cytotoxic and clastogenic effects of soluble and insoluble compounds containing hexavalent and trivalent chromium” (British Journal of Cancer, 1981)

Tested on: BHK cells
Experiment: Stability of Cr(III) accumulated in BHK cells
Assay type: cell-based, Syrian hamster
Conditions: washed; for Chromium level in growth medium / Chromium level in cells / Chromium level, total (growth medium + cells): 6 h in MEM; for Fraction of the Cr accumulated in the cells that remains firmly bound: 6 h treatment, re-incubated up to 48 h in normal growth medium

Row | Structure (SMILES) | Chromium level in growth medium (10 µg/ml, incubation 24 h) | Fraction of the Cr accumulated in the cells that remains firmly bound | Chromium level in cells (100 µg/ml, incubation 12 h) | Chromium level, total (growth medium + cells) (100 µg/ml, incubation 12 h) | Chromium level in growth medium (100 µg/ml, incubation 12 h in normal growth medium) | Chromium level in cells (100 µg/ml, incubation 24 h) | Chromium level in growth medium (100 µg/ml, incubation 24 h) | Chromium level, total (growth medium + cells) (100 µg/ml, incubation 24 h) | Chromium level in cells (100 µg/ml, incubation 36 h) | Chromium level in growth medium (100 µg/ml, incubation 36 h) | Chromium level, total (growth medium + cells) (100 µg/ml, incubation 36 h) | Chromium level in cells (100 µg/ml, incubation 48 h) | Chromium level, total (growth medium + cells) (100 µg/ml, incubation 48 h)
1 | [Cl][Cr]([Cl])[Cl] [Chromium chloride] | 8-8 µg of Cr(III) per 10 pg of DNA | ~75% | – | – | – | – | – | – | – | – | – | – | –
2 | [K+].[K+].[O]=[Cr](=[O])([O-])[O][Cr](=[O])(=[O])[O-] [Potassium dichromate] | – | about 50% | 1-4 µg of Cr(III) per 10 pg of DNA | 2-9 µg of Cr(III) per 10 pg of DNA | 1-5 µg of Cr(III) per 10 pg of DNA | 1-6 µg of Cr(III) per 10 pg of DNA | 1-7 µg of Cr(III) per 10 pg of DNA | 3-3 µg of Cr(III) per 10 pg of DNA | 1-6 µg of Cr(III) per 10 pg of DNA | 1-3 µg of Cr(III) per 10 pg of DNA | 2-9 µg of Cr(III) per 10 pg of DNA | 1-5 µg of Cr(III) per 10 pg of DNA | 3-5 µg of Cr(III) per 10 pg of DNA
